The record followed here is publication doi:10.1101/717769.

Sequences of proteins named here, by UniProt entry; tags and fusion partners are left off.
UniProt P35241: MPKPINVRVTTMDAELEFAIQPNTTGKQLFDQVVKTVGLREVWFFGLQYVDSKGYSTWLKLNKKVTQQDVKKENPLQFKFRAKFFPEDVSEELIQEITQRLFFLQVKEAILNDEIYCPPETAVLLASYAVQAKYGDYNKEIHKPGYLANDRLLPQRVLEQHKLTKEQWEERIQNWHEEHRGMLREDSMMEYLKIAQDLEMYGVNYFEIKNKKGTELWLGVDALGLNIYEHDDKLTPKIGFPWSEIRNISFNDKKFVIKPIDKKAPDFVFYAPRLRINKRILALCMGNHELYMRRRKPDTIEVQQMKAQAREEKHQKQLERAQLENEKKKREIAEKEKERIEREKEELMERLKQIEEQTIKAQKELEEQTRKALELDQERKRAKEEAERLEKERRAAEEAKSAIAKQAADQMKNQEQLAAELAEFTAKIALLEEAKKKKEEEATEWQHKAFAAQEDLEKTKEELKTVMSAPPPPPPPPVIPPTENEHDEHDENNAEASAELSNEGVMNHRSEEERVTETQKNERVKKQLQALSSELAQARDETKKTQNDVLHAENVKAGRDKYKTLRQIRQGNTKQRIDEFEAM
UniProt P11171: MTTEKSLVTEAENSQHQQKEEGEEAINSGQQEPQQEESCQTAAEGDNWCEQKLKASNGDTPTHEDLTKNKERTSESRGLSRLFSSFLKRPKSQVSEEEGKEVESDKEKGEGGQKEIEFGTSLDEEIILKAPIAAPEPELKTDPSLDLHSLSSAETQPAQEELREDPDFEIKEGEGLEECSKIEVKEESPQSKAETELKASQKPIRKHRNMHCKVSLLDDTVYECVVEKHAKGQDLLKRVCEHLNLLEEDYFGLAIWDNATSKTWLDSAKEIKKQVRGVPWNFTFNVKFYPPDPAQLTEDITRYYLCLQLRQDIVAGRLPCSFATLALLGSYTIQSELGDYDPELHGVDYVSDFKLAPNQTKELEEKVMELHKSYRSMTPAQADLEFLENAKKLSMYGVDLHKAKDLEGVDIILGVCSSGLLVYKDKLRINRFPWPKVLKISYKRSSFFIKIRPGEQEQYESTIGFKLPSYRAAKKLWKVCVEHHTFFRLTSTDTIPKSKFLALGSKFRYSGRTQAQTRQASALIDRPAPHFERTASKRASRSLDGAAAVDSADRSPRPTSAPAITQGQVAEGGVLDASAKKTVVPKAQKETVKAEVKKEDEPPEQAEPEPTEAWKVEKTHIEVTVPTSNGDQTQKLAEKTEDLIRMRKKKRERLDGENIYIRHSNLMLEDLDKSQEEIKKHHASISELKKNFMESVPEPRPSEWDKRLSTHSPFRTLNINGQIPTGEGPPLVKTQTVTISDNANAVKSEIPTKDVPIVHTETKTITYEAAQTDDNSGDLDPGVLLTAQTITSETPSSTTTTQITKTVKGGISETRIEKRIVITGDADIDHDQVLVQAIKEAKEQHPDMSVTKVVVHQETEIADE
UniProt P26038: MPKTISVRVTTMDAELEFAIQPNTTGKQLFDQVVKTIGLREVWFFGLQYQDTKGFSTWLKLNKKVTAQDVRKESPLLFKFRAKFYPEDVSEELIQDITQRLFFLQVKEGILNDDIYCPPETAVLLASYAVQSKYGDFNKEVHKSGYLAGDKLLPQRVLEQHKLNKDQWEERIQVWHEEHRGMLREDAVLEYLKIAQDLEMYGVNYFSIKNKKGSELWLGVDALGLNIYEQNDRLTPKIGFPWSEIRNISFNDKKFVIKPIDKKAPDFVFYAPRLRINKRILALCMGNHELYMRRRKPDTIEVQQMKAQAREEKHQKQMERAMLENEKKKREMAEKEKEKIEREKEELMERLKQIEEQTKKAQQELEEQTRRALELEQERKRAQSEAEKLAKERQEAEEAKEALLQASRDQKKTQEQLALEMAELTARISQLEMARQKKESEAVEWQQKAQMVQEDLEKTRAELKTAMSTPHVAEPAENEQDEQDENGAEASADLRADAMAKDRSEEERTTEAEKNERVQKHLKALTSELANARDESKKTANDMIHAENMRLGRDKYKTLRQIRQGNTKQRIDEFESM
UniProt O14646: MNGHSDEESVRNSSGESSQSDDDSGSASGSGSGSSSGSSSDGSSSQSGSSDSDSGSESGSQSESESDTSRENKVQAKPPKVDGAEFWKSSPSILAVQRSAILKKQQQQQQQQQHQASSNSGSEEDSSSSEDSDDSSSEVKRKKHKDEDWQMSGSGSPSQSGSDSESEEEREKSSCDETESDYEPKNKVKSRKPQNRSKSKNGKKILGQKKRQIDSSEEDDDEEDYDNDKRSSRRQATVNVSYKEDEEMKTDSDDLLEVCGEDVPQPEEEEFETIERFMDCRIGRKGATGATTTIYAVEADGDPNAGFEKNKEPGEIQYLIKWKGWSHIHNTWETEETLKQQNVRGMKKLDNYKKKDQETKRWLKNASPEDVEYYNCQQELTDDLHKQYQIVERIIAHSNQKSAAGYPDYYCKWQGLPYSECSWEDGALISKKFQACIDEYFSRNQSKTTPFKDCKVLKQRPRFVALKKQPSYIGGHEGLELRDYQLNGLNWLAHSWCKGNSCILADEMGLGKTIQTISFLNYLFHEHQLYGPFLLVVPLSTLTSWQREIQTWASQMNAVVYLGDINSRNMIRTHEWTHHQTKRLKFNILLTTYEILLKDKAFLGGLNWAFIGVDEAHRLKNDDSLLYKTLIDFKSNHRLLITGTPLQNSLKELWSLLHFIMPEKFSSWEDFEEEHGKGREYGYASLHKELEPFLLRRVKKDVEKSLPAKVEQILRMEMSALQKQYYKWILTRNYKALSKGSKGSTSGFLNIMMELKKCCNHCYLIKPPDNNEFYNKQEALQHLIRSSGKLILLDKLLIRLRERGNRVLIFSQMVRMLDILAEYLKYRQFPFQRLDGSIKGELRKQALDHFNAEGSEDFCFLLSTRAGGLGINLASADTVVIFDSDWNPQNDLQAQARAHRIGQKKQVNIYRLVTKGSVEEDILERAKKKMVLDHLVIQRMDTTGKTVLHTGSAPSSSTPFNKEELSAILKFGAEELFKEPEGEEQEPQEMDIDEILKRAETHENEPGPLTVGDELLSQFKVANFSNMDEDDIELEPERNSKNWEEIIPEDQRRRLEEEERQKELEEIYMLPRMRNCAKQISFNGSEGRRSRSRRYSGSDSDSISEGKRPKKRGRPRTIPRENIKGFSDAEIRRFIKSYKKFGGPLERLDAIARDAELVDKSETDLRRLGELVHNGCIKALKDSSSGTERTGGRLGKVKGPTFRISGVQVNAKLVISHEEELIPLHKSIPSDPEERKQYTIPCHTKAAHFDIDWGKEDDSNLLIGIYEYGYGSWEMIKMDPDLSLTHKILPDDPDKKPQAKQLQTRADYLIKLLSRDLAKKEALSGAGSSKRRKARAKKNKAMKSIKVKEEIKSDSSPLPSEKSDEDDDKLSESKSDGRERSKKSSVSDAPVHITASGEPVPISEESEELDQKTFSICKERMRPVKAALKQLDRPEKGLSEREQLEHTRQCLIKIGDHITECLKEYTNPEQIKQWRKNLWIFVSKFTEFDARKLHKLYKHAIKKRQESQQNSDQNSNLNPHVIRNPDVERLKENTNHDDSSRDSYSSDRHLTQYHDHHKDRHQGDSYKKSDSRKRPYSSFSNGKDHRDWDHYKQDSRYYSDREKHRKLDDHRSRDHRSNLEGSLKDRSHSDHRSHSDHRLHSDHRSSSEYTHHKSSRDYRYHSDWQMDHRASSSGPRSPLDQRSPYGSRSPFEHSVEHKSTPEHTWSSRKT
UniProt Q8IZL8: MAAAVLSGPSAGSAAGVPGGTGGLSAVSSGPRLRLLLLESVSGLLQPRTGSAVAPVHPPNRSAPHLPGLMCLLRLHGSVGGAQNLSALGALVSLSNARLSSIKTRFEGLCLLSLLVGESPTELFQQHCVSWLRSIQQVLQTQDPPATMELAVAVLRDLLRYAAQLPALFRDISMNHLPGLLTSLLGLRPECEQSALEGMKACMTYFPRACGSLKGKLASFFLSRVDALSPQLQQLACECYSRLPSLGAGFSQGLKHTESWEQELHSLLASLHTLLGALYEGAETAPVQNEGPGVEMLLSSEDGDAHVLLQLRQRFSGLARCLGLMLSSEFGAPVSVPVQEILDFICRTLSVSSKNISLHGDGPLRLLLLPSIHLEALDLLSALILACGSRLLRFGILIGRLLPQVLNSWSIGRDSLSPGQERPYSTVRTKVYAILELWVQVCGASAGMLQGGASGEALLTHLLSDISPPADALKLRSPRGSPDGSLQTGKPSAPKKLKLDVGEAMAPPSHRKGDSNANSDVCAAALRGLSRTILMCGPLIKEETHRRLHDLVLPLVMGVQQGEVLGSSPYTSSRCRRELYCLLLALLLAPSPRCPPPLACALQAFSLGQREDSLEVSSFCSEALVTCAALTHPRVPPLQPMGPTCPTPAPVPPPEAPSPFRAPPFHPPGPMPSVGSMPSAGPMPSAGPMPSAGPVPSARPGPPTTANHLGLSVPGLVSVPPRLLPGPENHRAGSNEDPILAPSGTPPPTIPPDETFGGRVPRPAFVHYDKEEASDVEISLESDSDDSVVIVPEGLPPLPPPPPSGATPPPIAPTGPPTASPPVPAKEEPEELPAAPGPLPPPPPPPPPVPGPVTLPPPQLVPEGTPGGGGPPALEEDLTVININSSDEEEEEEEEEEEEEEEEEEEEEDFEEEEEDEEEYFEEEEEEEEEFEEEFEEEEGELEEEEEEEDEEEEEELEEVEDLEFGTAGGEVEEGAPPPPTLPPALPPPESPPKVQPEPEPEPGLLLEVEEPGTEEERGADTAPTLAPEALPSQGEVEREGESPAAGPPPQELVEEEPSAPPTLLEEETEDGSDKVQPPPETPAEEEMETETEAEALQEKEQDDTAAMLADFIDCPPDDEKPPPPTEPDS
UniProt Q9Y4B6: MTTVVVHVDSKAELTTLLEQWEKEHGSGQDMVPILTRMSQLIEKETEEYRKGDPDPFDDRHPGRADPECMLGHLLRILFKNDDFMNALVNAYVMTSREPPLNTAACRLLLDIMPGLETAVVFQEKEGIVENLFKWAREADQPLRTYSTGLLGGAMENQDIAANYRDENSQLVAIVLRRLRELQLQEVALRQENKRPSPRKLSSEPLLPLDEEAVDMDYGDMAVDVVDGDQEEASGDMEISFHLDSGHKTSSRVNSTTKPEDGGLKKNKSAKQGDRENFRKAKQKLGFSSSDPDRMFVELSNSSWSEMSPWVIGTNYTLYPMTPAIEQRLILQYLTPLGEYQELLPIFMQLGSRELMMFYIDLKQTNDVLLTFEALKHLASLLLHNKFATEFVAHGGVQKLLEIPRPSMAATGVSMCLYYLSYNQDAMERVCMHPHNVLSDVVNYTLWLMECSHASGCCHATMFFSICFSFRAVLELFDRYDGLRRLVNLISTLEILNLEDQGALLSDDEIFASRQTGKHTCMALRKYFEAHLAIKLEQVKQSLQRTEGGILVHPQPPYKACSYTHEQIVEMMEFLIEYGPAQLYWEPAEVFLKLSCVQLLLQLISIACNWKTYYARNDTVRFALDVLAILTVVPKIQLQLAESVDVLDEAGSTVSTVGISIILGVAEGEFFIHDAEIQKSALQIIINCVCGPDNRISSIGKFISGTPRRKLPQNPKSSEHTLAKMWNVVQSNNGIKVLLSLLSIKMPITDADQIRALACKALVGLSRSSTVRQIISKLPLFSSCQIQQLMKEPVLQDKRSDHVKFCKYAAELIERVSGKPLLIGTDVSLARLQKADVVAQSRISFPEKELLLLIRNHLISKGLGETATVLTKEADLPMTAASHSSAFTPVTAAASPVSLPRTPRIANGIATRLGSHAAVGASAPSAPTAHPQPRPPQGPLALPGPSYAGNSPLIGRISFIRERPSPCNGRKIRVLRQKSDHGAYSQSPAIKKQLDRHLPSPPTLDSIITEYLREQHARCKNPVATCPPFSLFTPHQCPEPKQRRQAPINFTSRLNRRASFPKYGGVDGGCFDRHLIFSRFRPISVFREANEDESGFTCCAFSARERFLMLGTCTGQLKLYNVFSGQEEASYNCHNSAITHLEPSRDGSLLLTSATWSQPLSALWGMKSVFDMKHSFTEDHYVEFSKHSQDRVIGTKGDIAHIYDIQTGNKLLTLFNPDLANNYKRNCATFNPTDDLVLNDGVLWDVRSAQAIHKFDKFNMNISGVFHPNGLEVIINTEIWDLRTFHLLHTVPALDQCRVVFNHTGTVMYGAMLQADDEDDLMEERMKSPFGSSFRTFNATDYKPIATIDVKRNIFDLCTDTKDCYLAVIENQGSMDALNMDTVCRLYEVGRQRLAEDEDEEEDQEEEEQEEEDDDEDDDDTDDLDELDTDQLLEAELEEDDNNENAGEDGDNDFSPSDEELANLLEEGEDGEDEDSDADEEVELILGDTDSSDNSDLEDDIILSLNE

For assay [1], the target named is Recombinant GST-Merlin L46R (UniProt P35240). Briefly: pull-down.
Assay [2] has as its target Recombinant GST-Merlin FERM domain (UniProt P35240). Briefly: pull-down.
Assay [3] deals with Recombinant GST-Merlin wild type (UniProt P35240). Briefly: pull-down.
A further assay addresses GST-Merlin (full length) (UniProt P35240). Briefly: pull-down.
Another assay deals with Flag-Radixin (UniProt P35241). Briefly: co-IP.
The target of a further assay is Flag-Ezrin (UniProt P15311). Briefly: co-IP.
Assay [4] deals with Flag-erythrocyte membrane protein band 4.1 (EPB41) (UniProt P11171). Briefly: co-IP.
Assay [5] addresses Flag-Merlin (UniProt P35240). Briefly: co-IP.
The target in assay [6] is Endogenous Merlin (human (endogenous in IOMM-Lee)) (UniProt P35240). Briefly: co-IP.
Another assay concerns the target Flag-Merlin isoform 1 (UniProt P35240). Briefly: co-IP.
In the next assay the target is Flag-Moesin (UniProt P26038). Briefly: co-IP.
The target of assay [7] is Flag-Merlin (UniProt P35240). Briefly: co-IP. The source holds these as a separate data set.
The target in the next assay is Flag-Merlin L234R (UniProt P35240). Briefly: co-IP.
A further assay has as its target Flag-Merlin ΔF118 (UniProt P35240). Briefly: co-IP.

Read-outs that look alike come from different tables or passages of the source. Results are given in words; binding and its absence hold for the method and conditions named. In cells and extracts the contact can be indirect. Some entries that bind do so weakly or less than the wild type.

Take “CHD1 (endogenous) (from UniProt O14646 1-1710)”: the binding entry in assay [1] is reported as “no binding”; in assay [2], “binds”; in assay [3] it was “binds”; with GST-Merlin (full length), “binds”; in the assay with Flag-Radixin it was “no binding”; with Flag-Ezrin it was “no binding”. In addition, the binding entry in assay [4] is “no binding”; in the assay with Flag-Merlin [5], “binds”; in assay [6] it was “binds”; in the assay with Flag-Merlin isoform 1, “binds”; with Flag-Moesin, “no binding”.
As to “PELP1 (endogenous) (from UniProt Q8IZL8 1-1130)”, the binding entry with Flag-Radixin is on record as “no binding”; with Flag-Ezrin, “no binding”; in assay [4] it was “no binding”; in the assay with Flag-Merlin isoform 1 it was “binds”; with Flag-Moesin, “no binding”.
“VPRBP/DCAF1 (endogenous) (from UniProt Q9Y4B6 1-1507)”: the binding result is reported as “binds” in [2]; “binds” in assay [3]; “binds” with Flag-Merlin [7]; “binds” in the assay with Flag-Merlin [5]; “no binding” with Flag-Merlin L234R; “binds” in assay [6]. In addition, the binding entry with Flag-Merlin ΔF118 was “binds”.
